Source: paper PMC9169372
These are yes or no findings as the source states them, for the method shown. In cells and extracts the contact can be indirect.

Chains of the proteins cited; added tags and fusions are not shown.
UniProt P38398: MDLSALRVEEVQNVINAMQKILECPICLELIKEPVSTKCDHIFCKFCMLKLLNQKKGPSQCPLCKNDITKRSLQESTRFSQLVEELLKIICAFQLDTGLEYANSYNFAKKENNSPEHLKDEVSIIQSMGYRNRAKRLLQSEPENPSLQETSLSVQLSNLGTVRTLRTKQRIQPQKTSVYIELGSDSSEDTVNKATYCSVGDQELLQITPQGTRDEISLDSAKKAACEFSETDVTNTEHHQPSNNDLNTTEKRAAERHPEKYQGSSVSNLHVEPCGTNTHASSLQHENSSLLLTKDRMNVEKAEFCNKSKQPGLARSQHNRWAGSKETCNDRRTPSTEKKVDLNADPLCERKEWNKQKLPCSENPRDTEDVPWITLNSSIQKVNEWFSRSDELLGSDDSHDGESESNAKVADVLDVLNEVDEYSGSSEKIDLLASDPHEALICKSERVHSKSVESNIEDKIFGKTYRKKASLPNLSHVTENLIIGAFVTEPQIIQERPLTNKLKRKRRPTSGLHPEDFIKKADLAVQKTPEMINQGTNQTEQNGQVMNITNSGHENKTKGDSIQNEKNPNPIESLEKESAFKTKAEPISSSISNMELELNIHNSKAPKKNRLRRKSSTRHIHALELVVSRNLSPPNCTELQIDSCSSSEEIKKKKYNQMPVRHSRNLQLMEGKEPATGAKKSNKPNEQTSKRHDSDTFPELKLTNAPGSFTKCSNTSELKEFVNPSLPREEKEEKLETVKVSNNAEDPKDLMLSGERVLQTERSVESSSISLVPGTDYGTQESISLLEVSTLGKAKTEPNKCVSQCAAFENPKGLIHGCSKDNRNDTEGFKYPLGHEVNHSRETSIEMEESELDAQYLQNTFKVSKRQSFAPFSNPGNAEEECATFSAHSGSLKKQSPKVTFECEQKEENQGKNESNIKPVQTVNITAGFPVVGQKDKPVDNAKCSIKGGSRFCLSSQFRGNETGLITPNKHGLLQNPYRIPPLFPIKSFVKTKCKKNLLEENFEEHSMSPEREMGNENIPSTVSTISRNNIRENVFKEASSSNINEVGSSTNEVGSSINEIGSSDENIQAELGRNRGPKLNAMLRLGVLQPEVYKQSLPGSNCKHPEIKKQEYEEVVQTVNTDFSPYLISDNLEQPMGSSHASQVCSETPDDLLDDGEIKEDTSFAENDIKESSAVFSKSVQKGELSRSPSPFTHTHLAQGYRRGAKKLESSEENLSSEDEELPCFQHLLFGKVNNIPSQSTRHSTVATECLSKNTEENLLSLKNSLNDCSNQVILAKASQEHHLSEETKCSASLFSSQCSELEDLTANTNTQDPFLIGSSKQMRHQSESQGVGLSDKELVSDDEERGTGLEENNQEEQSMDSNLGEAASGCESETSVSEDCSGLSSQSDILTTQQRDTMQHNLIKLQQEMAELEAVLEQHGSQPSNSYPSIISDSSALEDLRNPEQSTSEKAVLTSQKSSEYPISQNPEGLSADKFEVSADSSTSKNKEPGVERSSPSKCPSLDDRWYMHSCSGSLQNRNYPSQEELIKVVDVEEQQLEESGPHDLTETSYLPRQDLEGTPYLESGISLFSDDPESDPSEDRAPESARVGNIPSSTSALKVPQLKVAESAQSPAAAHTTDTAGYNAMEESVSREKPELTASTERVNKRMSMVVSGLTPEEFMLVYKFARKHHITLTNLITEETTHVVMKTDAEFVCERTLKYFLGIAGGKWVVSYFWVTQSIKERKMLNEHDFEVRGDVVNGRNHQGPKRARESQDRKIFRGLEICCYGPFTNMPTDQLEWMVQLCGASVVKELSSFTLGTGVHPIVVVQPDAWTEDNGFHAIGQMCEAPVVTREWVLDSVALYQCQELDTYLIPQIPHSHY
UniProt O60331: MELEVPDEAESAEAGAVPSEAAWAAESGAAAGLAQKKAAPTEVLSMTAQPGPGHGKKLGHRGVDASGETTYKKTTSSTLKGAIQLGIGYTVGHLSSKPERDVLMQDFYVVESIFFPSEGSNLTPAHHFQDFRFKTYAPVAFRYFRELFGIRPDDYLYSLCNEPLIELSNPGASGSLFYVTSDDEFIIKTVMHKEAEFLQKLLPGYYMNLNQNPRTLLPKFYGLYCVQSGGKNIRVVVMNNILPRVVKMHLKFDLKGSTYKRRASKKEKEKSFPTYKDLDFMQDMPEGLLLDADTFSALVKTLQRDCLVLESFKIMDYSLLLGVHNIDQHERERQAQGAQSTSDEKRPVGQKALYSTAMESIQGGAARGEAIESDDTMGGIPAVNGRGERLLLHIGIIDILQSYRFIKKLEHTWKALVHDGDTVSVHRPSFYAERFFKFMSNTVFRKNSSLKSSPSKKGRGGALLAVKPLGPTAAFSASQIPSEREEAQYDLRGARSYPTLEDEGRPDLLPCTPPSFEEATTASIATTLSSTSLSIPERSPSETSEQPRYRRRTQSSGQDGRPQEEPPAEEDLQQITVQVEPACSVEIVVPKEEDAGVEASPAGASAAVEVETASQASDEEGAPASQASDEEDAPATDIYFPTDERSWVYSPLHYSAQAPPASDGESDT

Target: BRCA1 (human (endogenous in colorectal cancer cells)) (UniProt P38398)
Assay: co-IP; in colorectal cancer cells; performed as previously reported (ref. 2); which protein was precipitated is not told

“type Iγ phosphatidylinositol phosphate kinase (from UniProt O60331 1-668) (enzyme)” was tested, and the binding was “no binding”.
